Patent publication US20260207707A1 (UNIVERSITY OF CHICAGO, published 2026)
No constants are given. Whether binding was seen depends on the method and setting. In cells and extracts the contact can be indirect. Some results given as binding are weak or reduced against the parent protein; the word gives no strength.

Target: T1, neutrophil elastase (ELANE) (human, UniProt P08246 30-247, limits assumed)
T1 construct: Purified ELANE; In the co-immunoprecipitation it is the native protein in human PMN media; also called human ELANE
T1 sequence (looked up): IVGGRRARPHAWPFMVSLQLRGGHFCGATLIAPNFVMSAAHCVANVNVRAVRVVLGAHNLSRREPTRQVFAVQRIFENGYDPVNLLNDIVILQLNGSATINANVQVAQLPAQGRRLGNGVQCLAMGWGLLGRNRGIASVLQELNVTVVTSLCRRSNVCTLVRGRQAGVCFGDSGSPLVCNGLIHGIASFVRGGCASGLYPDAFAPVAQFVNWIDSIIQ
Test: co-immunoprecipitation from human PMN media

- binding: binds
B1: eosinophil cationic protein (ECP) (other, human, UniProt P12724 28-160, looked up)
chain: RPPQFTRAQWFAIQHISLNPPRCTIAMRAINNYRWRCKNQNTFLRTTFANVVNVCGNQSIRCPHNRTLNNCHRSRFRVPLLHCDLINPGAQNISNCTYADRPGRRFYVVACDNRDPRDSPRYPVVPVHLDTTI
notes: Identified by proteomics in media conditioned by human PMNs
